A weaker result is weaker than the reference pair of the same experiment. Tags and fusion partners may be left off the protein sequences shown.
Target: T1, Elk-1 (Homo sapiens) (UniProt P19419)
T1 sequence (looked up, limits assumed): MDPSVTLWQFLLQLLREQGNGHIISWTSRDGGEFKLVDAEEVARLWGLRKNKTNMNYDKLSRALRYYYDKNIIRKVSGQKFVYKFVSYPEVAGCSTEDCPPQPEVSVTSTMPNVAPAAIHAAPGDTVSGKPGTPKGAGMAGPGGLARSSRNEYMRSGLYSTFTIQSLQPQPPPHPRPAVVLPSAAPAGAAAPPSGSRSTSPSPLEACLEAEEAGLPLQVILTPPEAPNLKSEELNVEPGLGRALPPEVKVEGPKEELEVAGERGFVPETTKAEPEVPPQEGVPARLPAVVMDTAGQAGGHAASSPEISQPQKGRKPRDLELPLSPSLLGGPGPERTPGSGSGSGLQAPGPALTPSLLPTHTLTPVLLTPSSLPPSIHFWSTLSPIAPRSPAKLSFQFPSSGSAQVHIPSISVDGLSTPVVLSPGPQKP
Assay: EMSA
Settings: less binding than A allele probe; same buffer; purified recombinant protein; protein details: recombinant human Elk-1, Sigma Aldrich; variant of GRIN2B promoter rs3764030 A allele probe

CATCTCCGGGGGACACGCGAA (double strand) [GRIN2B promoter rs3764030 G allele probe]
binding result: binds more weakly

From patent publication US20170349943, “METHODS FOR DETECTING ENHANCED NMDA RECEPTOR FUNCTION AND USES THEREOF” (INOVA HEALTH SYSTEM, published 2017)
